Drug screen on melanoma cell lines: cell count

From a melanoma drug combination screen (doi:10.1371/journal.pone.0140310); values rounded.

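Human melanoma cells were exposed to a pair of drugs for 72 h in 1,536-well plates and read by automated microscopy after fixing and staining. Values are the number of DAPI-stained nuclei as a percentage of the DMSO control: 100 is no effect, lower means fewer cells. Concentrations were fixed for each drug; these are the lower of two levels, a fifth of the higher. These are primary screening values without error estimates.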 An unselected part of the screen is shown. An entry leaves out what has no value listed here. A dash means that no value is listed here.

Drugs:
veliparib, 1400 nM: C[C@]1(c2nc3c(C(N)=O)cccc3[nH]2)CCCN1
vismodegib, 1000 nM: CS(=O)(=O)c1ccc(C(=O)Nc2ccc(Cl)c(-c3ccccn3)c2)c(Cl)c1
bexarotene, 2000 nM: C=C(c1ccc(C(=O)O)cc1)c1cc2c(cc1C)C(C)(C)CCC2(C)C
crizotinib, 200 nM: C[C@@H](Oc1cc(-c2cnn(C3CCNCC3)c2)cnc1N)c1c(Cl)ccc(F)c1Cl
sorafenib, 400 nM: CNC(=O)c1cc(Oc2ccc(NC(=O)Nc3ccc(Cl)c(C(F)(F)F)c3)cc2)ccn1
enzastaurin, 800 nM: Cn1cc(C2=C(c3cn(C4CCN(Cc5ccccn5)CC4)c4ccccc34)C(=O)NC2=O)c2ccccc21
NVP-BEZ235, 4 nM: Cn1c(=O)n(-c2ccc(C(C)(C)C#N)cc2)c2c3cc(-c4cnc5ccccc5c4)ccc3ncc21
MK-2206, 400 nM: NC1(c2ccc(-c3nc4ccn5c(=O)[nH]nc5c4cc3-c3ccccc3)cc2)CCC1
cisplatin, 1600 nM: N.N.[Cl][Pt][Cl]

| # | Pair | LB2518-MEL | COLO 829 | COLO 800 | C32 | A101D | G-361 | IST-MEL1 | MEL-HO | IPC-298 | COLO 792 | A375 |
|---|---|---|---|---|---|---|---|---|---|---|---|---|
| 1 | MK-2206 + enzastaurin | - | 109 | 78.8 | 89.0 | 86.2 | 105 | 110 | 103 | 106 | 88.7 | 104 |
| 2 | enzastaurin + NVP-BEZ235 | 104 | 98.7 | 115 | 111 | 92.4 | 102 | 109 | 103 | 107 | 94.7 | 108 |
| 3 | cisplatin + veliparib | 106 | 91.7 | 123 | 92.6 | 89.6 | 72.5 | 95.2 | 95.2 | 96.7 | 91.5 | 81.8 |
| 4 | cisplatin + vismodegib | 107 | 113 | 73.4 | 109 | 105 | 106 | 96.8 | 95.4 | 102 | 112 | 103 |
| 5 | MK-2206 + crizotinib | 102 | 78.9 | 101 | 80.4 | 85.3 | 87.6 | 96.7 | 74.1 | 92.6 | 67.2 | 75.8 |
| 6 | MK-2206 + bexarotene | 94.4 | 114 | 139 | 93.0 | 87.3 | 78.8 | 101 | 91.4 | 97.9 | 74.9 | 93.1 |
| 7 | NVP-BEZ235 + MK-2206 | 77.7 | 70.9 | 96.0 | 91.1 | 77.2 | 84.4 | 81.9 | 62.3 | 82.8 | 45.9 | 71.4 |
| 8 | cisplatin + NVP-BEZ235 | - | 72.3 | 91.7 | 89.5 | 80.0 | 80.4 | 86.4 | 84.8 | 100 | 84.6 | 75.9 |
| 9 | crizotinib + NVP-BEZ235 | 115 | 95.7 | 96.0 | 116 | 104 | 82.4 | 87.4 | 91.1 | 104 | 98.4 | 96.9 |
| 10 | crizotinib + sorafenib | 80.3 | 104 | 76.7 | 97.3 | 98.0 | 84.4 | 101 | 98.6 | 82.2 | 116 | 91.8 |
| 11 | sorafenib + cisplatin | 108 | 109 | 132 | 104 | 89.0 | 93.8 | 90.3 | 81.4 | 91.1 | 101 | 94.9 |
| 12 | NVP-BEZ235 + veliparib | 94.6 | 74.0 | 93.3 | 85.6 | 92.0 | 82.4 | 87.9 | 88.9 | 90.7 | 93.3 | 64.4 |
| 13 | NVP-BEZ235 + sorafenib | - | 77.7 | 132 | 93.5 | 94.5 | 102 | 94.4 | 83.5 | 82.5 | 101 | 86.8 |
| 14 | crizotinib + enzastaurin | - | 108 | 121 | 106 | 99.9 | 106 | 112 | 94.6 | 97.1 | 96.4 | 116 |
| 15 | enzastaurin + bexarotene | 106 | 125 | 159 | 96.5 | 94.4 | 83.2 | 101 | 83.2 | 97.8 | 95.7 | 97.6 |
| 16 | vismodegib + MK-2206 | 100 | 97.6 | 118 | 99.8 | 92.6 | 80.1 | 94.6 | 86.4 | 103 | 84.4 | 72.8 |
| 17 | veliparib + crizotinib | 89.7 | 83.7 | 77.1 | 97.2 | 90.3 | 90.9 | 98.6 | 87.9 | 102 | 88.4 | 92.3 |
| 18 | sorafenib + veliparib | 106 | 83.6 | 96.8 | 83.8 | 102 | 98.4 | 94.8 | 96.1 | 94.4 | 118 | 98.9 |
| 19 | vismodegib + crizotinib | 97.3 | 71.7 | 66.6 | 94.8 | 98.6 | 118 | 102 | 91.1 | 96.9 | 108 | 114 |
| 20 | enzastaurin + cisplatin | - | 98.1 | 105 | 112 | 98.8 | 90.8 | 92.7 | 95.2 | 95.6 | 100 | 105 |
| 21 | vismodegib + bexarotene | 95.1 | 87.4 | 123 | 123 | 105 | 74.6 | 97.3 | 85.5 | 102 | 86.3 | 106 |
| 22 | crizotinib + cisplatin | 102 | 90.3 | 92.5 | 84.7 | 85.0 | 96.8 | 94.8 | 82.0 | 106 | 87.9 | 89.6 |
| 23 | veliparib + vismodegib | 85.8 | 76.4 | 55.0 | 96.0 | 114 | 87.7 | 102 | 96.6 | 102 | 91.8 | 79.0 |
| 24 | MK-2206 + sorafenib | 97.1 | 67.9 | 102 | 114 | 99.3 | 81.0 | 99.3 | 83.3 | 93.4 | 86.6 | 89.1 |
| 25 | vismodegib + NVP-BEZ235 | 100 | 119 | 85.0 | 93.2 | 101 | 71.5 | 102 | 90.6 | 103 | 91.6 | 101 |
| 26 | enzastaurin + sorafenib | 100 | 97.0 | 150 | 96.9 | 96.5 | 87.6 | 104 | 92.5 | 88.6 | 122 | 82.3 |
| 27 | veliparib + MK-2206 | 102 | 74.3 | 83.9 | 91.1 | 76.2 | 84.0 | 98.0 | 86.1 | 95.1 | 70.4 | 83.2 |
| 28 | sorafenib + vismodegib | 98.2 | 106 | 89.5 | 109 | 98.9 | 79.6 | 105 | 94.4 | 93.0 | 120 | 99.8 |
| 29 | vismodegib + enzastaurin | 99.6 | 92.3 | 139 | 105 | 85.3 | 103 | 96.4 | 98.7 | 97.2 | 101 | 96.5 |

2 of the entries, repeated:

{"pair": "vismodegib + MK-2206", "LB2518-MEL": 100, "COLO 829": 97.6, "COLO 800": 118, "C32": 99.8, "A101D": 92.6, "G-361": 80.1, "IST-MEL1": 94.6, "MEL-HO": 86.4, "IPC-298": 103, "COLO 792": 84.4, "A375": 72.8}
{"pair": "NVP-BEZ235 + MK-2206", "LB2518-MEL": 77.7, "COLO 829": 70.9, "COLO 800": 96.0, "C32": 91.1, "A101D": 77.2, "G-361": 84.4, "IST-MEL1": 81.9, "MEL-HO": 62.3, "IPC-298": 82.8, "COLO 792": 45.9, "A375": 71.4}